Experimental data as given in patent publication US20160200789A1, “IL4 CONJUGATED TO ANTIBODIES AGAINST EXTRACELLULAR MATRIX COMPONENTS” (PHILOGEN S.P.A., priority 2013, published 2016).
No constants are given. Whether binding was seen depends on the method and setting. Some binding calls cover weakened binding; strength is not graded here.

Sequences of proteins named here, by UniProt entry; tags and fusion partners are left off. Residues count along the entry.
UniProt P11276, residues 33-2477: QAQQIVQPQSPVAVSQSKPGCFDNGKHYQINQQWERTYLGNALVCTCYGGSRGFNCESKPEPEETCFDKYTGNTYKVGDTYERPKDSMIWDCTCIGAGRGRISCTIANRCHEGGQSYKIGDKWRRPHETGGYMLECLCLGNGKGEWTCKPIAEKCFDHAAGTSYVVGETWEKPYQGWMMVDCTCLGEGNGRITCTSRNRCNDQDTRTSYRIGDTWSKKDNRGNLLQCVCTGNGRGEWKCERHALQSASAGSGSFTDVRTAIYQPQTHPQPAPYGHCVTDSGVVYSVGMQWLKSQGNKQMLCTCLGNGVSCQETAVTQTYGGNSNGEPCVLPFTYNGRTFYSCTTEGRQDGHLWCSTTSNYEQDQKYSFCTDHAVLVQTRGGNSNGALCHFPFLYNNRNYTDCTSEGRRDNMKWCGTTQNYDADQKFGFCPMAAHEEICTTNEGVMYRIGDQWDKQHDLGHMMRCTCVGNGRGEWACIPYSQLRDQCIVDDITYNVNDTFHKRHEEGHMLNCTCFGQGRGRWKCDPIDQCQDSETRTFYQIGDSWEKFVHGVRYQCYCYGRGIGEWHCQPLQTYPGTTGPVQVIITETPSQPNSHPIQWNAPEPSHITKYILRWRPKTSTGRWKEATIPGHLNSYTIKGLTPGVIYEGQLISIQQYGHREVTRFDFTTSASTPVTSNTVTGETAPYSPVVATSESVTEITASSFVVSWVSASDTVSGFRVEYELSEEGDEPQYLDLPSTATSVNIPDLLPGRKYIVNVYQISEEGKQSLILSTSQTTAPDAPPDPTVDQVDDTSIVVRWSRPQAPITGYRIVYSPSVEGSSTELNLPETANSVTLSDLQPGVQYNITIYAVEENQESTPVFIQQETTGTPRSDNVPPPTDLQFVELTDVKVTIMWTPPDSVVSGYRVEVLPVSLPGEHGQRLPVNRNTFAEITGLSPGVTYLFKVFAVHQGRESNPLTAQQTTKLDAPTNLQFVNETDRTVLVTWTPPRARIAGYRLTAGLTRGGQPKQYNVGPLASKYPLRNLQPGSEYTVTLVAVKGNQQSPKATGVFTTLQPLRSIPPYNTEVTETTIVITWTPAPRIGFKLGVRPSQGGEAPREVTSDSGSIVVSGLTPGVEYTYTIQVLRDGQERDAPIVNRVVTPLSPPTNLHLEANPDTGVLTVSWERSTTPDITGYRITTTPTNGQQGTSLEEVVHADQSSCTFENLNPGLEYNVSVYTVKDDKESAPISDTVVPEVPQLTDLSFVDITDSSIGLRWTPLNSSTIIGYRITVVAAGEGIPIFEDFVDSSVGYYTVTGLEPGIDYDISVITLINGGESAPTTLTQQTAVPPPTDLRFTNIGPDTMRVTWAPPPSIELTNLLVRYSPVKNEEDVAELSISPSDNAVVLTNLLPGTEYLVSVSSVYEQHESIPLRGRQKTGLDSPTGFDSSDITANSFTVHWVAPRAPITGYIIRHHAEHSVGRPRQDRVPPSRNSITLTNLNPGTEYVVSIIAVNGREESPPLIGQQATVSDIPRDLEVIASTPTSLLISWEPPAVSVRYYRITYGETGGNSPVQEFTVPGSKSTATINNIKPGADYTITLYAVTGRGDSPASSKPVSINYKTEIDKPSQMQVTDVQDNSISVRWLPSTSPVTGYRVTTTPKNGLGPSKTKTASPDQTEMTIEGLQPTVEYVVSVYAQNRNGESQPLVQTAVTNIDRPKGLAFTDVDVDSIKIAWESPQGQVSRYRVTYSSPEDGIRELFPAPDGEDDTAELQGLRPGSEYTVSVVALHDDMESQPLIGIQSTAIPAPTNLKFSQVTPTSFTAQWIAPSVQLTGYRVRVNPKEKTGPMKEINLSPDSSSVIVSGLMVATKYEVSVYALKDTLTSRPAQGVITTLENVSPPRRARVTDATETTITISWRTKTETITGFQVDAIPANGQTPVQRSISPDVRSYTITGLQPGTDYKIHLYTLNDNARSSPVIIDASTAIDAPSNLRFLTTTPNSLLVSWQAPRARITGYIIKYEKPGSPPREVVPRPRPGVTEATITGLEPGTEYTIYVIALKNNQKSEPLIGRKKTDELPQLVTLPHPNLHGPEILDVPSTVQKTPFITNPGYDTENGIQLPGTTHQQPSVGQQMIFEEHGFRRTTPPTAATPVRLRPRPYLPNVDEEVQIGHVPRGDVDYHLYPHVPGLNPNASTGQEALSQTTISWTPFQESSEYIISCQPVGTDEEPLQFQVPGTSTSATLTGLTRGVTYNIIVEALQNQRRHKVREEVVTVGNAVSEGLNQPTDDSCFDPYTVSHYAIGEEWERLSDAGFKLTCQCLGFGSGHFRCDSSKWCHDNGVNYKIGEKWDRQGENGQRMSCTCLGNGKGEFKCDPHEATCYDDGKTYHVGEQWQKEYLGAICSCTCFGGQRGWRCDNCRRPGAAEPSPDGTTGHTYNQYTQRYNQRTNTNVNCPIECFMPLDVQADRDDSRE

Columns and labels:
[1] = target: ED-A isoform of fibronectin (A-FN) in mouse tissue cryosections (mouse) (UniProt P11276); experiment: immunofluorescence, biotinylated F8-IL4 on acetone-fixed tumour cryosections
[2] = target: ED-A isoform of fibronectin (A-FN) in mouse tissue cryosections (mouse) (UniProt P11276); experiment: immunofluorescence, SIP format antibody at 2 µg/ml on frozen pancreas sections of diabetic mice

Binder | binding [1] | binding [2]
F8-IL4 (F8-(murine) IL4) (protein) EVQLLESGGGLVQPGGSLRLSCAASGFTFSLFTMSWVRQAPGKGLEWVSAISGSGGSTYYADSVKGRFTISRDNSKNTLYLQMNSLRAEDTAVYYCAKSTHLYLFDYWGQGTLVTVSSGGSGGEIVLTQSPGTLSLSPGERATLSCRASQSVSMPFLAWYQQKPGQAPRLLIYGASSRATGIPDRFSGSGSGTDFTLTISRLEPEDFAVYYCQQMRGRPPTFGQGTKVEIKSSSSGSSSSGSSSSGHIHGCDKNHLREIIGILNEVTGEGTPCTEMDVPNVLTATKNTTESELVCRASKVLRIFYLKHGKTPCLKKNSSVLMELQRLFRAFRCLDSSISCTMNESKSTSLKDFLESLKSIMQMDYS | binds | 
F8-SIP (antibody F8 in SIP format) (antibody, human IgE) EVQLLESGGGLVQPGGSLRLSCAASGFTFSLFTMSWVRQAPGKGLEWVSAISGSGGSTYYADSVKGRFTISRDNSKNTLYLQMNSLRAEDTAVYYCAKSTHLYLFDYWGQGTLVTVSSGGGGSGGGGSGGGGEIVLTQSPGTLSLSPGERATLSCRASQSVSMPFLAWYQQKPGQAPRLLIYGASSRATGIPDRFSGSGSGTDFTLTISRLEPEDFAVYYCQQMRGRPPTFGQGTKVEIKSGGSGGPRAAPEVYAFATPEWPGSRDKRTLACLIQNFMPEDISVQWLHNEVQLPDARHSTTQPRKTKGSGFFVFSRLEVTRAEWEQKDEFICRAVHEAASPSQTVQRAVSVNPESSRRGGC |  | binds
